Assay results reported in patent publication US20090209435A1.
These are yes or no findings as the source states them, for the method shown. In cells and extracts the contact can be indirect. Some results given as binding are weak or reduced against the parent protein; the word gives no strength.

Target: V5-tagged TRPM4b (human) (UniProt Q8TD43)
Assay: co-immunoprecipitation from lysates of co-transfected HEK-293 cells with anti-Flag and anti-V5, Western blots probed with both antibodies

“Flag-tagged TRPM4b (from UniProt Q8TD43 1-1214)” was tested, and the binding was “binds”.
